Laboratory results published in the supplement of paper PMC6411743.
± gives the standard deviation of the averaged measurements. Some of the results follow.

Sequences of proteins named here, by UniProt entry; tags and fusion partners are left off. A change or cut given only in a name is not applied to a line headed by its entry.
UniProt Q7Z5K2: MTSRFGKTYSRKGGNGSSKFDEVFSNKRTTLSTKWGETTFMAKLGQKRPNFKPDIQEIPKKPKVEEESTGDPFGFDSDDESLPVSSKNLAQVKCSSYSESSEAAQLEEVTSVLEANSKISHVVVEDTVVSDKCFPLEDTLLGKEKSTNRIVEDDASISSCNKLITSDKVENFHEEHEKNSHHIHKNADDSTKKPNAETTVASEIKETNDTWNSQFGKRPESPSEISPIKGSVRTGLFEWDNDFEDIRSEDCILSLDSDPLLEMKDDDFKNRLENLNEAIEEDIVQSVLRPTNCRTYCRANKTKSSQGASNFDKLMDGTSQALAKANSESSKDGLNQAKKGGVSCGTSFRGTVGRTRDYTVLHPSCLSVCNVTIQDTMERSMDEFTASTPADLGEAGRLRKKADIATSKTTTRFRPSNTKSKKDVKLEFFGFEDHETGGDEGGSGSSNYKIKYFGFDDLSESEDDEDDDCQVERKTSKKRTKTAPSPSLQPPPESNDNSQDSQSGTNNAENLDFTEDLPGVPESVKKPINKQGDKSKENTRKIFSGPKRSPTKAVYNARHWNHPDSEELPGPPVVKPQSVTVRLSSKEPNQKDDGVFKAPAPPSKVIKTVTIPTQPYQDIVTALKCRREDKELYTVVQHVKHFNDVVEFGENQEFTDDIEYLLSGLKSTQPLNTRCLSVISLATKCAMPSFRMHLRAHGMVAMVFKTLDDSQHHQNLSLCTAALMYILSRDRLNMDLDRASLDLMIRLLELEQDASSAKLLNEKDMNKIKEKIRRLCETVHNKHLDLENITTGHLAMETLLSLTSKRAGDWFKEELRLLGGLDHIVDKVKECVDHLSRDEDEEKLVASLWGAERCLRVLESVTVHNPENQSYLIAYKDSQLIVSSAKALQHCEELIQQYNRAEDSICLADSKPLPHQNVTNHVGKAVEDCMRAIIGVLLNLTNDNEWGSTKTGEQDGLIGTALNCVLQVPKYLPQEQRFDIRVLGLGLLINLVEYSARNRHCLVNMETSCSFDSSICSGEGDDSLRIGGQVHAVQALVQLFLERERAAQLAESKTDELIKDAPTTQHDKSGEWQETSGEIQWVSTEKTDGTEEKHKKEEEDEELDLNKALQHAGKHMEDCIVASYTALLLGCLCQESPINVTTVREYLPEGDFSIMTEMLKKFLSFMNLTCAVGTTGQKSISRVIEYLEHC
UniProt Q7Z5R6: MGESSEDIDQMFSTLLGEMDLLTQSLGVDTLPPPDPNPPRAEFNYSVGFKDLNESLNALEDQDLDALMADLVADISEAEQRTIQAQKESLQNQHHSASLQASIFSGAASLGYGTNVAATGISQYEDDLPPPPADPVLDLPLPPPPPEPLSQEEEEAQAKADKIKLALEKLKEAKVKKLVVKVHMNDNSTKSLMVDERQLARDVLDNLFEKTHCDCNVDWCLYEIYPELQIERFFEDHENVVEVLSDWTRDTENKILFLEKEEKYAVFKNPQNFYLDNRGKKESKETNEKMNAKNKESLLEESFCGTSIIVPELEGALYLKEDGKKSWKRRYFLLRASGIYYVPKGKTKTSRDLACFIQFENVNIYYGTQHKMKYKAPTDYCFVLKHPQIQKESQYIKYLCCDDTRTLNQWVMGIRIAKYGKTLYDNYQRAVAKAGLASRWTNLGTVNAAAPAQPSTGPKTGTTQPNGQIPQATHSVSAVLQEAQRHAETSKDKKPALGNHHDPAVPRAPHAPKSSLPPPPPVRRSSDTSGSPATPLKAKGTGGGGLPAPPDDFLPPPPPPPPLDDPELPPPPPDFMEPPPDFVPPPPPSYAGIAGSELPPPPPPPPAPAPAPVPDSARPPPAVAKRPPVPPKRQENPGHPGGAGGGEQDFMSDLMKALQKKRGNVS
UniProt Q6FI81: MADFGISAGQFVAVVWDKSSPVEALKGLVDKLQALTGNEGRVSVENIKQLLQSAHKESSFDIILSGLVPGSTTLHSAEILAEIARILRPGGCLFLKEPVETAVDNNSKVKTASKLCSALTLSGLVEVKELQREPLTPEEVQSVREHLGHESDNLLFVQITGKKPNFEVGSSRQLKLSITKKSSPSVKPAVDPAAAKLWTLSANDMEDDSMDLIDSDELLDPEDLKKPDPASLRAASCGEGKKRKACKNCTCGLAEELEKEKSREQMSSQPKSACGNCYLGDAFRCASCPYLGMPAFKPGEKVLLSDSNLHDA
UniProt Q63HQ0: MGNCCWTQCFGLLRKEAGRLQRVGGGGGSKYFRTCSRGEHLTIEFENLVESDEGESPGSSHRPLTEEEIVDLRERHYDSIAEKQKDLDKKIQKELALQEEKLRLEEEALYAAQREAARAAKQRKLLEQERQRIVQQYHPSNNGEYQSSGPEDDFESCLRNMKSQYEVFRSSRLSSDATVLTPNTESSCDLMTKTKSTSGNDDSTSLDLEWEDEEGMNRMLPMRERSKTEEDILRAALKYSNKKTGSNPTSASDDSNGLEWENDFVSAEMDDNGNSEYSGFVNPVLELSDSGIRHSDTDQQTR
UniProt Q7L9L4: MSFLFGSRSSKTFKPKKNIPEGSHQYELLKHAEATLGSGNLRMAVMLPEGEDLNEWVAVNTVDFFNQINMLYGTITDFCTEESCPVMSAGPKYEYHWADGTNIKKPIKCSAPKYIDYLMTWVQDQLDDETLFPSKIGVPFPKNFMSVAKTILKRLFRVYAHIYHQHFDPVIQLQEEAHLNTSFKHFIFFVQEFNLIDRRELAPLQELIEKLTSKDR
UniProt Q9H8S9: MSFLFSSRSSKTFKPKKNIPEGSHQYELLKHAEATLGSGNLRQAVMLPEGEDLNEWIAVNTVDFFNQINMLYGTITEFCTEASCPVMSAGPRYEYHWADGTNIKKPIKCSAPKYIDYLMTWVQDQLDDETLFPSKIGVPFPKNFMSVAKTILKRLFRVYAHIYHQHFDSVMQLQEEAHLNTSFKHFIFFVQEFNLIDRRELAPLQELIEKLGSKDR
UniProt Q6ICB0: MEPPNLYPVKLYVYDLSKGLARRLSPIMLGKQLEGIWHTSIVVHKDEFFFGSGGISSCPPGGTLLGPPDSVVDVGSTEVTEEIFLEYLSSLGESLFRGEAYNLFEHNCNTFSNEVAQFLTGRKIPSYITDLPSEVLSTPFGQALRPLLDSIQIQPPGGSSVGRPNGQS
UniProt Q6ZS11: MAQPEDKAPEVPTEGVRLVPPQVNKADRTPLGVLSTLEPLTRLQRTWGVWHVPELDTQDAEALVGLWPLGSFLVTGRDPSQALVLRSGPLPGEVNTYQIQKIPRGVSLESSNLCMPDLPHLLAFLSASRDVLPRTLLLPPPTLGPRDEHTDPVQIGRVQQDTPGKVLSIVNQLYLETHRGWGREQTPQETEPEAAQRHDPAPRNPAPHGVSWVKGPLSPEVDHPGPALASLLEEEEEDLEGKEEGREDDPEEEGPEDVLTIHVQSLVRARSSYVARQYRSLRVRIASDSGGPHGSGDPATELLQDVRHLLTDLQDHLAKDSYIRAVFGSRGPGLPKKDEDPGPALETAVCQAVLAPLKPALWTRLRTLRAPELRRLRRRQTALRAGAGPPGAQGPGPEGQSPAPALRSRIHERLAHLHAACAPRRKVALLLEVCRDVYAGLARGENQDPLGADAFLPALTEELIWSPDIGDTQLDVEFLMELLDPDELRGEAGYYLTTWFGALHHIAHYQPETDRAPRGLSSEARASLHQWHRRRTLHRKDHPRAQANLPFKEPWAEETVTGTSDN
UniProt Q6NUQ1: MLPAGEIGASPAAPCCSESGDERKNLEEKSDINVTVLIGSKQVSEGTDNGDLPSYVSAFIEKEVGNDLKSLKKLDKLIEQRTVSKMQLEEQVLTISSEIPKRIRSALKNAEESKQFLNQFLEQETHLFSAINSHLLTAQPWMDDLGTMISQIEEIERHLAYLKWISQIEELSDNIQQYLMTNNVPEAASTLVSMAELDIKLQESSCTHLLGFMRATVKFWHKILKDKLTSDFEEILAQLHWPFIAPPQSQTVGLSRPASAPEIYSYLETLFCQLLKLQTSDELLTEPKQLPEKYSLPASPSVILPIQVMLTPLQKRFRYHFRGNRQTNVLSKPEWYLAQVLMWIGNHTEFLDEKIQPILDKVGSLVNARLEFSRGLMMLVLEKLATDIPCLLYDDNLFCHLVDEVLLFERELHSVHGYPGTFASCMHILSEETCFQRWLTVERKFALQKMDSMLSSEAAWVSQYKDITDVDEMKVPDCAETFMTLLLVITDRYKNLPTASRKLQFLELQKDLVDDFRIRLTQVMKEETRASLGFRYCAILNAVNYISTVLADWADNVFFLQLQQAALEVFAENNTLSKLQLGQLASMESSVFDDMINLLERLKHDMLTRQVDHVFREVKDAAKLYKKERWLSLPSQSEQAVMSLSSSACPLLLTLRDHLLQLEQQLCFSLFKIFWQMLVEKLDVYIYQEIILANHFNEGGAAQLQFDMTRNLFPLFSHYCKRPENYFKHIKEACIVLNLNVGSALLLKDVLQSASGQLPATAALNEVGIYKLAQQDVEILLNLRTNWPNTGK
UniProt Q6PJG6: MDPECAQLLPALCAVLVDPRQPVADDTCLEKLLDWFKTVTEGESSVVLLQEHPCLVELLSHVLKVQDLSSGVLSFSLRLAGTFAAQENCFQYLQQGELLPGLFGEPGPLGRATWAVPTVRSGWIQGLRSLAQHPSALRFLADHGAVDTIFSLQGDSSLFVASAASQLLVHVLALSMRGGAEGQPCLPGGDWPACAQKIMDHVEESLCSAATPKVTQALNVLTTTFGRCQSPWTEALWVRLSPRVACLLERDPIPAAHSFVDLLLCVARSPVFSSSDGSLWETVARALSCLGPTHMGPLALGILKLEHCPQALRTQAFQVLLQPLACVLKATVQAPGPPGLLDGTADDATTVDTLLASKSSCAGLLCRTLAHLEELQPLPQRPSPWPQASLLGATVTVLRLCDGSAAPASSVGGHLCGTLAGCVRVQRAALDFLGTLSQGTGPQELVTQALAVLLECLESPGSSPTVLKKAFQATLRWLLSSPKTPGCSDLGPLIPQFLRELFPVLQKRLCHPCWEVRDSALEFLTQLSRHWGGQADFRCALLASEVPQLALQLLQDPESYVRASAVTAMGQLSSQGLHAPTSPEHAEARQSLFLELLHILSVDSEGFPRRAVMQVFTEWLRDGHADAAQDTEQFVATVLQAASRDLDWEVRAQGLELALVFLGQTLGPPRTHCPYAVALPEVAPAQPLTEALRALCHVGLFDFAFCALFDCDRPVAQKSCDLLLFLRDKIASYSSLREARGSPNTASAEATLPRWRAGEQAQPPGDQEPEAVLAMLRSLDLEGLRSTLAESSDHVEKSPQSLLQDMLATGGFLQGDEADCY
UniProt Q7Z6L1: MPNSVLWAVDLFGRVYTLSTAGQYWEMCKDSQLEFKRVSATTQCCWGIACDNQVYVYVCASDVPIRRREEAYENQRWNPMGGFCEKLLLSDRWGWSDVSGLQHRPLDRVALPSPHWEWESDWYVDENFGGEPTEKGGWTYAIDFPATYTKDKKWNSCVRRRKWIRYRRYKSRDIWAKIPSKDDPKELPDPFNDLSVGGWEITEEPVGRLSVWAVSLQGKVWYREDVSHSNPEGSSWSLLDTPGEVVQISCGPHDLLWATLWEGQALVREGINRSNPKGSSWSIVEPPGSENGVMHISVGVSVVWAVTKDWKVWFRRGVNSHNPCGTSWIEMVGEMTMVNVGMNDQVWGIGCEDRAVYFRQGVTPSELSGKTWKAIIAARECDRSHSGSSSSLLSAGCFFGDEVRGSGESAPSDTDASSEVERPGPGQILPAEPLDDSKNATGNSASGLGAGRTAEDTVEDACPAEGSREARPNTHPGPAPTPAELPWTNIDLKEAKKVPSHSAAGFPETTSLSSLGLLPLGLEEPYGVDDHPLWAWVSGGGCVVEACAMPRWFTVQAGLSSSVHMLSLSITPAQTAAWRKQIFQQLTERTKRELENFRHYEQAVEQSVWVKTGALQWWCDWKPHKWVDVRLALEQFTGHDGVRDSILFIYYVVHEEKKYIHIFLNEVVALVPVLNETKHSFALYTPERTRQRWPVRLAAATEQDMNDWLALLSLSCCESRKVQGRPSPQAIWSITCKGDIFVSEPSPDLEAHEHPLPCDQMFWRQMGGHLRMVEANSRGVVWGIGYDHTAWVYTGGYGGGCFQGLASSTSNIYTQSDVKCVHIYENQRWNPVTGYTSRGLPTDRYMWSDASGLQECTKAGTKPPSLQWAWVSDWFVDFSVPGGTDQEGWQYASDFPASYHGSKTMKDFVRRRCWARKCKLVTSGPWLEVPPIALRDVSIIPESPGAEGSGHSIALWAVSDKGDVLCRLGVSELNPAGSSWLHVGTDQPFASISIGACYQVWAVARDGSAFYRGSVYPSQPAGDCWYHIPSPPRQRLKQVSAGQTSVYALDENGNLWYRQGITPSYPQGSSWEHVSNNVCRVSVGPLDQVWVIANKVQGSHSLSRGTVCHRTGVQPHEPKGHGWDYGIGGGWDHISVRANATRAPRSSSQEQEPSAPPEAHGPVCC

Compound: Nc1nc2c(ncn2[C@@H]2O[C@H](COP(=O)(O)OP(=O)(O)OP(=O)(O)O)[C@@H](O)[C@H]2O)c(=O)[nH]1 [guanosine triphosphate]
Experiment: NP40-soluble protein abundance relative to vehicle (solubility fold change) (ratio); higher = more soluble protein in presence of GTP
Method in brief: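 Crude Jurkat lysate, prepared by Dounce homogenisation, was exposed to eight concentrations from 0.1 to 10 mM for 10 min at room temperature and then 3 min at 37 °C. Solubilisation used 0.8% NP40 with benzonase for 60 min at 4 °C, followed by ultracentrifugation and TMT labelling of the supernatant for LC-MS/MS. After vsn normalisation of intensities, each value is the fold change against the detergent-processed vehicle within each replicate, across three independent experiments.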

Row | Target | NP40-soluble protein abundance (concentration: 0.1mM) | NP40-soluble protein abundance (concentration: 0.5mM) | NP40-soluble protein abundance (concentration: 1mM) | NP40-soluble protein abundance (concentration: 2mM) | NP40-soluble protein abundance (concentration: 4mM) | NP40-soluble protein abundance (concentration: 6mM) | NP40-soluble protein abundance (concentration: 8mM) | NP40-soluble protein abundance (concentration: 10mM)
1 | UniProt Q7Z5K2 and related entries | 1 ± 0.042 | 1.03 ± 0.011 | 1.026 ± 0.0099 | 1.02 ± 0.011 | 1 ± 0.012 | 0.9971 ± 0.0042 | 1.02 ± 0.038 | 1 ± 0.017
2 | APBB1IP (UniProt Q7Z5R6) | 0.985 ± 0.038 | 0.945 ± 0.029 | 0.918 ± 0.038 | 0.931 ± 0.059 | 0.906 ± 0.065 | 0.923 ± 0.067 | 0.89 ± 0.05 | 0.874 ± 0.068
3 | CIAPIN1 (UniProt Q6FI81) | 0.958 ± 0.029 | 0.945 ± 0.028 | 0.958 ± 0.043 | 0.932 ± 0.048 | 0.905 ± 0.05 | 0.92 ± 0.079 | 0.91 ± 0.03 | 0.92 ± 0.05
4 | SMYD5 (UniProt Q6GMV2) | 1.12 ± 0.086 | 0.983 ± 0.1 | 0.992 ± 0.023 | 0.96 ± 0.085 | 1.05 ± 0.14 | 0.92 ± 0.055 | 0.959 ± 0.068 | 0.883 ± 0.019
5 | UniProt Q5VIR6-4 | 1.04 ± 0.028 | 1.07 ± 0.02 | 1.04 ± 0.049 | 1.05 ± 0.016 | 1.04 ± 0.03 | 0.975 ± 0.054 | 1.01 ± 0.054 | 0.993 ± 0.023
6 | UniProt Q86UY6 | 1.1 ± 0.034 | 1.17 ± 0.015 | 1.25 ± 0.032 | 1.38 ± 0.035 | 1.51 ± 0.1 | 1.56 ± 0.069 | 1.63 ± 0.04 | 1.62 ± 0.18
7 | UniProt Q63HQ0 | 0.923 ± 0.075 | 0.935 ± 0.056 | 0.951 ± 0.099 | 0.911 ± 0.13 | 1.02 ± 0.16 | 0.961 ± 0.12 | 0.952 ± 0.091 | 0.972 ± 0.11
8 | UniProt Q86TI2 and related entries | 1.11 ± 0.033 | 1.08 ± 0.015 | 1.01 ± 0.026 | 0.995 ± 0.05 | 1.01 ± 0.065 | 0.919 ± 0.043 | 0.933 ± 0.04 | 0.909 ± 0.089
9 | Q7L9L4 and related entries (UniProt Q9H8S9+Q7L9L4) | 0.983 ± 0.014 | 0.965 ± 0.031 | 0.947 ± 0.045 | 0.933 ± 0.041 | 0.991 ± 0.049 | 0.899 ± 0.11 | 0.915 ± 0.1 | 0.915 ± 0.11
10 | UniProt Q6ICB0 | 0.87 ± 0.16 | 0.864 ± 0.18 | 0.876 ± 0.084 | 0.824 ± 0.13 | 0.801 ± 0.12 | 0.83 ± 0.16 | 0.757 ± 0.098 | 0.779 ± 0.11
11 | RINL (UniProt Q6ZS11) | 0.993 ± 0.22 | 1.03 ± 0.11 | 1 ± 0.087 | 1.04 ± 0.042 | 0.989 ± 0.15 | 0.9124 ± 0.0078 | 0.999 ± 0.13 | 1 ± 0.091
12 | RINT1 (UniProt Q6NUQ1) | 1.16 ± 0.025 | 1.21 ± 0.1 | 1.17 ± 0.042 | 1.19 ± 0.1 | 1.22 ± 0.1 | 1.16 ± 0.087 | 1.18 ± 0.098 | 1.13 ± 0.099
13 | UniProt Q6PJG6 | 1.03 ± 0.063 | 1.02 ± 0.064 | 0.98 ± 0.086 | 1.01 ± 0.1 | 0.978 ± 0.077 | 0.974 ± 0.059 | 0.962 ± 0.031 | 0.958 ± 0.082
14 | UniProt Q86V81 | 0.939 ± 0.019 | 0.943 ± 0.079 | 1.12 ± 0.036 | 1.25 ± 0.097 | 1.5 ± 0.047 | 1.73 ± 0.054 | 1.95 ± 0.1 | 2.52 ± 0.13
15 | UniProt Q7Z6L1 and related entries | 0.924 ± 0.024 | 1.07 ± 0.049 | 0.926 ± 0.022 | 1.06 ± 0.1 | 0.917 ± 0.084 | 1.05 ± 0.091 | 0.913 ± 0.08 | 1.05 ± 0.043

Copied from the list:
RINL (UniProt Q6ZS11) – NP40-soluble protein abundance (concentration: 4mM): 0.989 ± 0.15
UniProt Q86UY6 – NP40-soluble protein abundance (concentration: 2mM): 1.38 ± 0.035
